Laboratory results published in the supplement of paper PMC7877785.
± gives the uncertainty stated by the source. Many of these values have a large error.

Experiment: self-splicing fitness, log relative to wild type (ln ratio); higher = more splicing; Tetrahymena group I intron in knt gene, E. coli kanamycin selection, DiMSum; sequences stand for … in CUCUCU…GGAGGGAAAAGUUAUCAGGCAUGCACCUGGUAGCUAGUCUUUAAACCAAUAGAUUGCAUCGGUUUAAAAGGCAAGACCGUCAAAUUGCGGGAAAGGGGUCAACAGCCGUUCAGUACCAAGUCUCAGGGGAAACUUUGAGAUGGCCUUGCAAAGGGUAUGGUAAUAAGCUGACGGACAUGGUCCUAACCACGCAGCCAAGUCCUAAGUCAACAGAUCUUCUGUUGAUAUGGAUGCAGUUCACAGACUAAAUGUCGGUCGGGGAAGAUGUAUUCUUCUCAUAAGAUAUAGUCGGACCUCUCCUUAAUGGGAGCUAGCGGAUGAAGUGAUGCAACACUGGAGCCGCUGGGAACUAAUUUGUAUGCGAAAGUAUAUUGAUUAGUUUUGGAGUACUCGUGGUCG
How it was run: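 DiMSum derived fitness as the error-weighted combination of fold changes across replicates, kanamycin versus no kanamycin, normalised to wild type. E. coli BL21(DE3) held the library, which randomised all eight P1ex-region intron nucleotides within the knt kanamycin-resistance gene on pET-22b(+). Six replicate transformations grew overnight at 37°C or 30°C on LB agar with or without 25 μg/mL kanamycin, also containing 100 μg/mL carbenicillin, 50 μM IPTG and 0.2% rhamnose, and pooled colonies were amplicon-sequenced on an Illumina HiSeq 2500.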

| Sequence | self-splicing fitness (ln) (37 °C) | self-splicing fitness (ln) (30 °C) |
| --- | --- | --- |
| AAGUAGCAAUAUUACGAGAC | -2.03 ± 1.1 | – |
| AAUUAGCAAUAUUACGGGUU | -0.955 ± 0.12 | -1.4 ± 0.12 |
| UUCUAGCAAUAUUACGCAGG | -2.6 ± 0.54 | – |
| CCAGAGCAAUAUUACGUCAC | -0.927 ± 0.87 | – |
| CUUGAGCAAUAUUACGAAUG | -0.596 ± 0.19 | -1.23 ± 0.12 |
| AGUCAGCAAUAUUACGGGGC | – | -4.04 ± 0.72 |
| UUUGAGCAAUAUUACGAUAC | -1.61 ± 0.6 | – |
| GUUUAGCAAUAUUACGCUUC | – | -2 ± 0.87 |
| GCGGAGCAAUAUUACGCAGA | -3.26 ± 1 | -4.93 ± 1 |
| GGGCAGCAAUAUUACGCAGC | -2.36 ± 0.63 | -2.36 ± 1.2 |
| CUGGAGCAAUAUUACGCCCA | – | -4.39 ± 0.73 |
| GCAUAGCAAUAUUACGAAAA | – | -0.675 ± 0.63 |
| AGUGAGCAAUAUUACGCGGG | – | -2.9 ± 0.55 |
| UUUUAGCAAUAUUACGCUCA | 0.849 ± 0.44 | -0.731 ± 0.29 |
| UUUGAGCAAUAUUACGCGAC | -1.97 ± 0.5 | – |
| CUCCAGCAAUAUUACGAAUC | -2.09 ± 0.55 | -4.52 ± 0.59 |
| GCAAAGCAAUAUUACGCCGC | -2.54 ± 0.62 | -3.9 ± 0.74 |
| CUCCAGCAAUAUUACGACGC | -3 ± 0.61 | -3.37 ± 0.52 |
| CUGCAGCAAUAUUACGAAAA | – | -4.13 ± 1 |
| AUGGAGCAAUAUUACGGGCC | -1.54 ± 1.2 | – |
| UCCUAGCAAUAUUACGGCUC | – | -2.44 ± 1.1 |
| AUUCAGCAAUAUUACGUGGA | -1.79 ± 0.12 | -2.72 ± 0.18 |
| CUCAAGCAAUAUUACGAUCC | -3.53 ± 0.73 | – |
| AGAGAGCAAUAUUACGUUUA | – | -3.2 ± 0.64 |

| Sequence | self-splicing fitness (ln) (37 °C) | self-splicing fitness (ln) (30 °C) |
| --- | --- | --- |
| CGAGAGCAAUAUUACGUUGC | -2.5 ± 0.76 | -3.19 ± 0.82 |
| UCCUAGCAAUAUUACGAAAC | -0.756 ± 0.66 | -3.46 ± 1.1 |
| ACGGAGCAAUAUUACGAGCA | -2.71 ± 0.62 | – |
| CUGGAGCAAUAUUACGGUCA | -3.17 ± 0.52 | – |
| GCGGAGCAAUAUUACGAGCA | – | -2.1 ± 0.5 |
| UCUGAGCAAUAUUACGCCAU | – | -4.19 ± 0.52 |
| GUGGAGCAAUAUUACGUAUA | -3.24 ± 0.6 | – |
| UUUCAGCAAUAUUACGAUUC | – | -1.69 ± 0.91 |
| UUCUAGCAAUAUUACGCGAU | -2.92 ± 0.61 | – |
| AUUAAGCAAUAUUACGCAAC | -2.14 ± 0.56 | -2.99 ± 0.53 |
| AUGUAGCAAUAUUACGAAUC | – | -4.46 ± 0.59 |
| CGGGAGCAAUAUUACGGGAU | -2.2 ± 0.56 | – |
| AUAGAGCAAUAUUACGGGGA | – | -4.2 ± 0.72 |
| AUGUAGCAAUAUUACGACCG | -0.5 ± 0.17 | -0.834 ± 0.12 |
| GUUGAGCAAUAUUACGACCC | – | -0.589 ± 0.78 |
| CAUAAGCAAUAUUACGUACC | -1.85 ± 0.68 | – |
| CUAUAGCAAUAUUACGCUAA | -2.41 ± 0.32 | -1.65 ± 0.2 |
| UCUUAGCAAUAUUACGGAAG | – | -2.59 ± 0.56 |
| CAAUAGCAAUAUUACGUUGG | -1.3 ± 0.11 | -1.9 ± 0.099 |
| ACUGAGCAAUAUUACGCGCC | 0.000402 ± 1.2 | – |
| UACUAGCAAUAUUACGACCC | – | -1.97 ± 1.2 |
| GGGGAGCAAUAUUACGCCCC | -2.54 ± 1.1 | -0.135 ± 1.2 |
| GCUUAGCAAUAUUACGCACU | 0.197 ± 0.12 | -0.857 ± 0.11 |
| AUUGAGCAAUAUUACGGCCC | – | -3.21 ± 1.1 |

An excerpt of these results, bar-delimited:
Sequence | self-splicing fitness (ln) (37 °C) | self-splicing fitness (ln) (30 °C)
GGGCAGCAAUAUUACGCAGC | -2.36 ± 0.63 | -2.36 ± 1.2
UUUGAGCAAUAUUACGCGAC | -1.97 ± 0.5 | –
AGAGAGCAAUAUUACGUUUA | – | -3.2 ± 0.64
CGAGAGCAAUAUUACGUUGC | -2.5 ± 0.76 | -3.19 ± 0.82
UCCUAGCAAUAUUACGAAAC | -0.756 ± 0.66 | -3.46 ± 1.1
ACGGAGCAAUAUUACGAGCA | -2.71 ± 0.62 | –
UACUAGCAAUAUUACGACCC | – | -1.97 ± 1.2

Later entries

| Sequence | self-splicing fitness (ln) (37 °C) | self-splicing fitness (ln) (30 °C) |
| --- | --- | --- |
| CUCGAGCAAUAUUACGUGCU | -2.8 ± 0.53 | – |
| CGUGAGCAAUAUUACGCGUG | -0.684 ± 0.1 | -2 ± 0.13 |
| CCUCAGCAAUAUUACGCUCC | -2.04 ± 0.79 | – |
| UUCGAGCAAUAUUACGGUGU | – | -3.68 ± 0.53 |
| CGAGAGCAAUAUUACGAAUA | -2.49 ± 0.54 | -3.09 ± 0.79 |
| CUAUAGCAAUAUUACGAUUU | – | -4.71 ± 1 |
| CUUUAGCAAUAUUACGAGCC | -2.79 ± 1.1 | -2.25 ± 1.1 |
| UUAUAGCAAUAUUACGAGCG | -0.754 ± 0.29 | -0.835 ± 0.28 |
| CCACAGCAAUAUUACGUGCC | -2.36 ± 0.21 | -1.6 ± 0.15 |
| GACUAGCAAUAUUACGUGUC | -3.12 ± 0.6 | – |
| UAGGAGCAAUAUUACGCGGC | -2.67 ± 1.1 | – |
| CGACAGCAAUAUUACGCAGA | -2.06 ± 0.1 | -2.61 ± 0.1 |
| CUUCAGCAAUAUUACGUCCU | -2.16 ± 0.56 | -4.12 ± 1 |
| GCGGAGCAAUAUUACGGUGA | -2.15 ± 0.79 | – |
| UGAGAGCAAUAUUACGUACU | – | -2.16 ± 0.5 |
| CUGGAGCAAUAUUACGGUGG | -1.93 ± 0.12 | -3.55 ± 0.14 |
| AGAAAGCAAUAUUACGCGGC | -2.46 ± 0.55 | -3.54 ± 1 |
| GGGGAGCAAUAUUACGGAUA | -1.79 ± 0.82 | -2.25 ± 0.56 |
| CCGAAGCAAUAUUACGAAUA | -2.49 ± 0.21 | -2.66 ± 0.24 |
| UAGGAGCAAUAUUACGUUCC | -2.58 ± 0.62 | – |
| CGAGAGCAAUAUUACGCUUG | -3.14 ± 0.34 | -3.51 ± 0.33 |
| GACUAGCAAUAUUACGGCAC | 0.581 ± 0.16 | -0.648 ± 0.14 |
| UUGUAGCAAUAUUACGGUAU | -2.42 ± 0.54 | – |
| GUUUAGCAAUAUUACGCCAU | -1.9 ± 0.69 | – |

| Sequence | self-splicing fitness (ln) (37 °C) | self-splicing fitness (ln) (30 °C) |
| --- | --- | --- |
| UCGUAGCAAUAUUACGCAUC | – | -4.16 ± 1 |
| CGUCAGCAAUAUUACGAUCG | -1.61 ± 0.11 | -1.74 ± 0.093 |
| CUGGAGCAAUAUUACGCAAA | -1.13 ± 0.63 | – |
| CGGAAGCAAUAUUACGAAAA | -2.39 ± 1.1 | -3.21 ± 1.1 |
| GAUGAGCAAUAUUACGCUAG | – | -3.92 ± 0.61 |
| AGAGAGCAAUAUUACGCUUU | -2.52 ± 0.45 | -3.54 ± 0.41 |
| GGCGAGCAAUAUUACGUAGG | -1.98 ± 0.65 | -3.38 ± 0.62 |
| AACUAGCAAUAUUACGGAUG | -1.03 ± 0.072 | -2.26 ± 0.067 |
| GUGUAGCAAUAUUACGCCCC | -0.924 ± 0.63 | – |
| UCUCAGCAAUAUUACGCGCU | – | -3.23 ± 1 |
| AUGGAGCAAUAUUACGAAGU | – | -3.07 ± 1.1 |
| CGGGAGCAAUAUUACGUUAC | -2.35 ± 0.64 | -4.64 ± 1 |
| ACGGAGCAAUAUUACGUGCC | -3.09 ± 1 | – |
| CGAUAGCAAUAUUACGACAC | -1.84 ± 0.81 | – |
| CCUGAGCAAUAUUACGUCCA | -2.83 ± 0.54 | – |
| CAAUAGCAAUAUUACGAACA | – | -1.06 ± 0.51 |
| UCAGAGCAAUAUUACGGACA | -2.82 ± 0.62 | -3.88 ± 0.73 |
| ACAUAGCAAUAUUACGAAGC | – | -3.98 ± 0.52 |
| CCCGAGCAAUAUUACGCUCU | – | -4.32 ± 1 |
| UGAGAGCAAUAUUACGUAAC | -0.933 ± 0.51 | – |
| CAUGAGCAAUAUUACGGUCG | 0.0674 ± 0.1 | -0.34 ± 0.091 |
| GCUUAGCAAUAUUACGAGGC | – | -3.02 ± 0.62 |
| ACUCAGCAAUAUUACGUUUA | -0.51 ± 0.086 | -1.54 ± 0.078 |
| AAUGAGCAAUAUUACGAGAC | -2.56 ± 0.76 | -2.61 ± 0.51 |

| Sequence | self-splicing fitness (ln) (37 °C) | self-splicing fitness (ln) (30 °C) |
| --- | --- | --- |
| CACGAGCAAUAUUACGCUAG | – | -3.27 ± 0.52 |
| UACGAGCAAUAUUACGCCCC | -1.16 ± 0.9 | – |
| CCUGAGCAAUAUUACGCGGG | -2.22 ± 0.34 | -3.41 ± 0.26 |
| GACGAGCAAUAUUACGAAAA | – | -3.31 ± 0.56 |
| GAUGAGCAAUAUUACGAACG | -0.683 ± 0.72 | -0.828 ± 0.82 |
| GUUGAGCAAUAUUACGGCCG | -0.44 ± 1.4 | – |
| CCGAAGCAAUAUUACGUUAA | – | -4.68 ± 1 |
| CGGUAGCAAUAUUACGACUC | 1.23 ± 0.43 | -1.01 ± 0.32 |
| UAGGAGCAAUAUUACGGCCA | -1.7 ± 0.27 | -2.27 ± 0.21 |
| CUAAAGCAAUAUUACGUGCC | -2.25 ± 0.18 | -4.57 ± 0.29 |
| CGUUAGCAAUAUUACGCCCG | -0.337 ± 1 | – |
| GGCGAGCAAUAUUACGAAAA | – | -3.23 ± 1 |
| GGCGAGCAAUAUUACGCCUG | -2.67 ± 0.75 | – |
| CGCUAGCAAUAUUACGCGCG | -2.98 ± 1.1 | -4.39 ± 0.73 |
| GCGAAGCAAUAUUACGGCCC | – | -0.653 ± 0.59 |
| AGUAAGCAAUAUUACGCGGC | – | -4.24 ± 0.59 |
| UGUGAGCAAUAUUACGAAAG | -2.69 ± 0.27 | -2.98 ± 0.18 |
| CAUGAGCAAUAUUACGGACU | – | -4.39 ± 0.73 |
| GUGUAGCAAUAUUACGCCAA | – | -3.71 ± 0.75 |
| AACGAGCAAUAUUACGGCUC | -2.63 ± 0.62 | – |
| CAUUAGCAAUAUUACGAUCC | – | -3.13 ± 1 |
| GGGUAGCAAUAUUACGAAAG | – | -3.48 ± 1.1 |
| CGGGAGCAAUAUUACGUGAU | – | -5.31 ± 1 |
| AGCCAGCAAUAUUACGAGUC | – | -5.07 ± 0.71 |
